From article PMC6185973 come the findings set out here.

Amino acid sequences for entries named in this document (tags omitted).
UniProt Q13535: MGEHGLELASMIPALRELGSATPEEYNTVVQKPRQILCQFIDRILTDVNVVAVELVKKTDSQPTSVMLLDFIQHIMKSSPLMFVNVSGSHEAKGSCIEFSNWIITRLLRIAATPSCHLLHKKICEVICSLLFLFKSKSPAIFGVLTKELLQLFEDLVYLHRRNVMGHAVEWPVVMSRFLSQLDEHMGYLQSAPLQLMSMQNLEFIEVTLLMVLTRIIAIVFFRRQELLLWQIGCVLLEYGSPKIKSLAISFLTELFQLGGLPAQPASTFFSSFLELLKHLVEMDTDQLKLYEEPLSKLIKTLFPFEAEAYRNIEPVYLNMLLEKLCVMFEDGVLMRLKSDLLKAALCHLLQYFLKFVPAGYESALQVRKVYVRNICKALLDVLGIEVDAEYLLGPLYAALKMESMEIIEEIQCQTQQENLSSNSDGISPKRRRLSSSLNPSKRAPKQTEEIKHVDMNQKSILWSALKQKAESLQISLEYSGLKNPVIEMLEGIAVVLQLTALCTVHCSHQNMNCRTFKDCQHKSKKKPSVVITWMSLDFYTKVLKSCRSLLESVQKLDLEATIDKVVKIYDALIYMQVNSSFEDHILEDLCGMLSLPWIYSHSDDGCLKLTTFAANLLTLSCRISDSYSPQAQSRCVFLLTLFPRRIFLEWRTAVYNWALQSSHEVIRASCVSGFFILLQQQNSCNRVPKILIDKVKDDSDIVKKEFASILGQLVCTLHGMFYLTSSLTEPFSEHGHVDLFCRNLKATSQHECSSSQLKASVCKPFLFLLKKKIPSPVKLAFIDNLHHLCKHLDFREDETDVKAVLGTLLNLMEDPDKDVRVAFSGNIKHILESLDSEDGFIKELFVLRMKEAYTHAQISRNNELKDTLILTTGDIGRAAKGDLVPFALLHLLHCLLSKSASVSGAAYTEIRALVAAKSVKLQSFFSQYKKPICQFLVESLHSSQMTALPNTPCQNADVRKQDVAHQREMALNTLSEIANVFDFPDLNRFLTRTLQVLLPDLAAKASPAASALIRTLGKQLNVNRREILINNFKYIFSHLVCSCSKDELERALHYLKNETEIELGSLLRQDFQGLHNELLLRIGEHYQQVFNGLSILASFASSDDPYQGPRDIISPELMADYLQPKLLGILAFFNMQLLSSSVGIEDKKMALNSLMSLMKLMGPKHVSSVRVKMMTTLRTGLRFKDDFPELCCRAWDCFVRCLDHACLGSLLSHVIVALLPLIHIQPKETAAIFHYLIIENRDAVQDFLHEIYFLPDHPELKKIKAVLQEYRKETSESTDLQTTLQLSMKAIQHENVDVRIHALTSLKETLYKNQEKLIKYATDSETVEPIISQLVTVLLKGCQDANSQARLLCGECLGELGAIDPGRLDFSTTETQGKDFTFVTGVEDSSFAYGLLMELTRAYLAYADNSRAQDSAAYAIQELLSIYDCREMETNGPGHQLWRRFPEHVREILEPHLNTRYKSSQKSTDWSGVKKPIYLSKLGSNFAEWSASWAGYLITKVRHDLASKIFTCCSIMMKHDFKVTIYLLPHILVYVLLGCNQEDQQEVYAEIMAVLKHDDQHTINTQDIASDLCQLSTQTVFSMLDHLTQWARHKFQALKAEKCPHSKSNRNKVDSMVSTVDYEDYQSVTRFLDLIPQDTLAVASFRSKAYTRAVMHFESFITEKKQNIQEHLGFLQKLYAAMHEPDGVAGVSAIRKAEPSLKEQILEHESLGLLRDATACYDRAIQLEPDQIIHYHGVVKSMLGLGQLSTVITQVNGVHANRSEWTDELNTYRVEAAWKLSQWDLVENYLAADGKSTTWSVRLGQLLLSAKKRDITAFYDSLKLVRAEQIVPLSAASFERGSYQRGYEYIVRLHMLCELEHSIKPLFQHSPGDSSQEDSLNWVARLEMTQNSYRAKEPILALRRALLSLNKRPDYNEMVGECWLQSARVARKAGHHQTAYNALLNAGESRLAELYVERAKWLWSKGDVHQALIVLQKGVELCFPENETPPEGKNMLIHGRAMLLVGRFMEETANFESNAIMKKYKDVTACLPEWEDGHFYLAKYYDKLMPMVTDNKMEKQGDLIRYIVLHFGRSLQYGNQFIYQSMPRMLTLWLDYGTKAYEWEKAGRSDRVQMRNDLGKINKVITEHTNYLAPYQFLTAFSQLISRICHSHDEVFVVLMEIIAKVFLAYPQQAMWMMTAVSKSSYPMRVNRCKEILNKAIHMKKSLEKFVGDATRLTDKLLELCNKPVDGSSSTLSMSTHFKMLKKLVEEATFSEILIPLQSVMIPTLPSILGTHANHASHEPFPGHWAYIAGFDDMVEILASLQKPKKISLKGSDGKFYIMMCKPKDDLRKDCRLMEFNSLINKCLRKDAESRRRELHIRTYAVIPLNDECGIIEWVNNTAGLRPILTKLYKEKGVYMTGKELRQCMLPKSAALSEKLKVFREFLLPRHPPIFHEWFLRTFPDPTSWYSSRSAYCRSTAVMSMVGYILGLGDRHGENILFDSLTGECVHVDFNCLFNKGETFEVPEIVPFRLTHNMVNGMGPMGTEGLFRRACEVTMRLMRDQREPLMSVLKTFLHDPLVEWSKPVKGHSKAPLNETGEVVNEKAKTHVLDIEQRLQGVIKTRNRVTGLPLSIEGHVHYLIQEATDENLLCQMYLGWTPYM

The target of this assay is T1, PLK4-FLAG (UniProt O00444).
T1 sequence: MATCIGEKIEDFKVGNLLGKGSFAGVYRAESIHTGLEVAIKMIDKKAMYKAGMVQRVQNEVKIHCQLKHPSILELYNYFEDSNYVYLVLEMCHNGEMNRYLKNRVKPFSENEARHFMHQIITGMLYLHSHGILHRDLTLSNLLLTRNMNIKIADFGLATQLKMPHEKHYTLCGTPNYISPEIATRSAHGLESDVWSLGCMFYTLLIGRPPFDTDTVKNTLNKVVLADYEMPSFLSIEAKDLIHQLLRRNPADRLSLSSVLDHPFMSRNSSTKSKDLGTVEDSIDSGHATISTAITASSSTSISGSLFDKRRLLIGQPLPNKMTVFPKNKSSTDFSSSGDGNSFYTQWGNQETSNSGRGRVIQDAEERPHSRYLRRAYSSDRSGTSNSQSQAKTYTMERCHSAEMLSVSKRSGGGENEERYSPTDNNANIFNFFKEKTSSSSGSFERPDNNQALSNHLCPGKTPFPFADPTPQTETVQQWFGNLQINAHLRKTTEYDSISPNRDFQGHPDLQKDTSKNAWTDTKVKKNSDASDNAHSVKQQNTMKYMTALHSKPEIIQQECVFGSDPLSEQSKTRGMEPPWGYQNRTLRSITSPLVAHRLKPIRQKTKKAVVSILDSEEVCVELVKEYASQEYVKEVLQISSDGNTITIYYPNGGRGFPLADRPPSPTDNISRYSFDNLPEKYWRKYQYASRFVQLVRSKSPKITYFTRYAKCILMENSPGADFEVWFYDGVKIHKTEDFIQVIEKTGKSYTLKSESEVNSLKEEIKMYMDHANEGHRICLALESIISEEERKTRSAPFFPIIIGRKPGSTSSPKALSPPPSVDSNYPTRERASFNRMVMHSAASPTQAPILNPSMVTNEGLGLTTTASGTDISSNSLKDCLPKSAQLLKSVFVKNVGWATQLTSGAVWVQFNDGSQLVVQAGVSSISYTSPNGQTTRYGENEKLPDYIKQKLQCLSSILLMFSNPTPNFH
Kind of assay: co-IP; Hep3B cells expressing PLK4-FLAG and ATR-GFP; lysate precleared with sepharose beads 2 h at 4 °C, incubated overnight with anti-FLAG antibody, washed three times with 0.5% NP40 cell lysate; ATR-GFP detected by immunoblot with anti-GFP antibody. On the technique in general: In western blotting, separated proteins are transferred to a membrane and probed.

Results are given in words; binding and its absence hold for the method and conditions named. In cells and extracts the contact can be indirect. Some entries that bind do so weakly or less than the wild type. Sequences can lack the tags named with a protein.

With ATR-GFP (from UniProt Q13535 1-2644), the binding result is given as “binds”.
